Measured values from patent publication US20120100152A1.
These are yes or no findings as the source states them, for the method shown. A result given as binding can be weak or reduced; the word gives no strength.

By UniProt entry, the sequences of proteins in these tests, tags left out. Where a name states a change or a piece, a line headed by the entry shows the natural chain unless it says otherwise.
UniProt P55899: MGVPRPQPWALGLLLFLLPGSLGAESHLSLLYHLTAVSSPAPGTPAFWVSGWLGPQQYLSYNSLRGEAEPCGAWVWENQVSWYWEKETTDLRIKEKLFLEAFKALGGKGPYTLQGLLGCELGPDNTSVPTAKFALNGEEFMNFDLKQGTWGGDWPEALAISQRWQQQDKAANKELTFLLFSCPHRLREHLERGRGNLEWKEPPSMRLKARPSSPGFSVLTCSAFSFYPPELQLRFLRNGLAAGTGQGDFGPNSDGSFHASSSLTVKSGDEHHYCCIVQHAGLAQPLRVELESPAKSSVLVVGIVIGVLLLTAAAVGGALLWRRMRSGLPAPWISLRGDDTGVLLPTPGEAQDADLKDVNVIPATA
UniProt Q61559: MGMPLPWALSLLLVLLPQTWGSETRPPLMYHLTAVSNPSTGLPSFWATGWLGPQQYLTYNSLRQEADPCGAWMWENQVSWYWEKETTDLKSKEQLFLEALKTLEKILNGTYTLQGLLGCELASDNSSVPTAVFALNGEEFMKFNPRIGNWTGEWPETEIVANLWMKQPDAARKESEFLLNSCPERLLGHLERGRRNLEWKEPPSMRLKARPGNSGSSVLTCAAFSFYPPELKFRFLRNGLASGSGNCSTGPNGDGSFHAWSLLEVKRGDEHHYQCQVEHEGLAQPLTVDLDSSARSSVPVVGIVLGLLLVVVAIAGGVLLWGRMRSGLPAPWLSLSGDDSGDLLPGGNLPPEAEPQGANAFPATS

What was measured:
human FcRn (human) [1] = target: human FcRn (human) (UniProt P55899); assay: Biacore (SPR)
mouse FcRn (mouse) [2] = target: mouse FcRn (mouse) (UniProt Q61559); assay: Biacore (SPR)
mouse FcRn (mouse) [3] = target: mouse FcRn (mouse) (UniProt Q61559); assay: Biacore, mouse FcRn binding at pH 6.0
human FcRn (human) [4] = target: human FcRn (human) (UniProt P55899); assay: Biacore, human FcRn binding at pH 6.0

- binding (human FcRn (human) [1]): binds
- binding (mouse FcRn (mouse) [2]): binds
- binding (mouse FcRn (mouse) [3]): binds
- binding (human FcRn (human) [4]): binds
B1: humanized antibody 2C3-SFD1/K12 (antibody, V domains shown)
VH: EVQLVESGGGLVQPGGSLRLSCAASGFTFNTYWMNWVRQAPGKGLEWVGQIRLKSNNYATHYAESVKGRFTISRDDSKNSLYLQMNSLKTEDTAVYYCTPVDFWGQGTTVTVSS
VL: DIVMTQTPLSLSVTPGQPASISCKSSQSLLYSNGKTYLNWLLQKPGQSPQRLIYLVSKLDSGVPDRFSGSGSGTDFTLKISRVEAEDVGVYYCVQGTHLHTFGQGTRLEIKR
